From patent US20240150302A1, “6-METHYLURACIL DERIVATIVES WITH ANTICHOLINESTERASE ACTIVITY AND THEIR USE” (priority 2021, published 2024)
Where a name gives a salt, the structure may show the parent alone.

What was measured:
[1] = system: transgenic mice of the B6C3-Tg(APP695)85Dbo Tg(PSENI)85Dbo genotype; assay: Number of amyloid plaques in the cortex, Thioflavin S staining of brain sections; assay type: in vivo
Protocol: The line was purchased at The Jackson Laboratory (USA) and kept in the “Pushchino” nursery for laboratory animals Pushchino, Moscow Region). At the beginning of the research, the age of the transgenic mice was 9 months.
(§1) An equivalent amount of water (Water (Tg+)) was orally administered to control groups of transgenic mice.
Amyloid-beta deposits were evaluated after sacrifice on mouse brain sections (20 μm) using the Thioflavin S fluorescent dye and the Olympus BX51W1 fluorescence microscope, by the method described in the article [http://library.med.utah.edu/WebPath/histhtml/manuals/manuals.html].
The line was purchased at The Jackson Laboratory (USA) and kept in the “Pushchino” nursery for laboratory animals Pushchino, Moscow Region). At the beginning of the research, the age of the transgenic mice was 8 months.
as §1

[2] = system: transgenic mice with genotype B6C3-Tg(APP695)85Dbo Tg(PSENI)85Dbo; assay: "Rewarded alternation" test in a T-maze, genetic model of Alzheimer's disease; assay type: in vivo
Source text: At the beginning of the research, the age of the transgenic mice was 9 months.
At the beginning of the research, the age of the transgenic mice was 8 months.

For `COc1cc2c(cc1OC)C(=O)C(CC1CCN(Cc3ccccc3)CC1)C2` (stereo not shown) [Donepezil hydrochloride], the “Number of amyloid plaques in the cortex” value ([1]; 1 mg/kg orally, Tg+ mice aged 9 months, 10x magnification (Example 7)) was 45 ± 2 per HPF, the “Number of amyloid plaques in the cortex” value ([1]; 5 mg/kg orally, Tg+ mice aged 8 months, 10x magnification (Example 8)) was 12 ± 1 per HPF and the “Effect on the number of amyloid plaques in the cortex” value ([1]; administered orally, Tg+ mice) was “did not significantly affect the number of amyloid plaques in the cortex”. For the same compound, the “The percentage of trained mice” value ([2]; 1 mg/kg orally, Tg+ mice aged 9 months (Example 5)) was 50%, the “The average percentage of choosing the right direction” value ([2]; 1 mg/kg orally, Tg+ mice aged 9 months, 14 days (Example 5)) was 66 ± 2% and the “The percentage of trained mice” value ([2]; 5 mg/kg orally, Tg+ mice aged 8 months (Example 6)) was 70%. The “The average percentage of choosing the right direction” value ([2]; 5 mg/kg orally, Tg+ mice aged 8 months, 14 days (Example 6)) was 69 ± 2%.
